Results taken from article doi:10.1101/2024.06.18.599616.
Results are given in words; binding and its absence hold for the method and conditions named. In cells and extracts the contact can be indirect. Some results given as binding are weak or reduced against the parent protein; the word gives no strength.

The chains behind the UniProt entries cited, without tags or fusion partners. Where a name states a change or a piece, a line headed by the entry shows the natural chain unless it says otherwise.
UniProt Q09472: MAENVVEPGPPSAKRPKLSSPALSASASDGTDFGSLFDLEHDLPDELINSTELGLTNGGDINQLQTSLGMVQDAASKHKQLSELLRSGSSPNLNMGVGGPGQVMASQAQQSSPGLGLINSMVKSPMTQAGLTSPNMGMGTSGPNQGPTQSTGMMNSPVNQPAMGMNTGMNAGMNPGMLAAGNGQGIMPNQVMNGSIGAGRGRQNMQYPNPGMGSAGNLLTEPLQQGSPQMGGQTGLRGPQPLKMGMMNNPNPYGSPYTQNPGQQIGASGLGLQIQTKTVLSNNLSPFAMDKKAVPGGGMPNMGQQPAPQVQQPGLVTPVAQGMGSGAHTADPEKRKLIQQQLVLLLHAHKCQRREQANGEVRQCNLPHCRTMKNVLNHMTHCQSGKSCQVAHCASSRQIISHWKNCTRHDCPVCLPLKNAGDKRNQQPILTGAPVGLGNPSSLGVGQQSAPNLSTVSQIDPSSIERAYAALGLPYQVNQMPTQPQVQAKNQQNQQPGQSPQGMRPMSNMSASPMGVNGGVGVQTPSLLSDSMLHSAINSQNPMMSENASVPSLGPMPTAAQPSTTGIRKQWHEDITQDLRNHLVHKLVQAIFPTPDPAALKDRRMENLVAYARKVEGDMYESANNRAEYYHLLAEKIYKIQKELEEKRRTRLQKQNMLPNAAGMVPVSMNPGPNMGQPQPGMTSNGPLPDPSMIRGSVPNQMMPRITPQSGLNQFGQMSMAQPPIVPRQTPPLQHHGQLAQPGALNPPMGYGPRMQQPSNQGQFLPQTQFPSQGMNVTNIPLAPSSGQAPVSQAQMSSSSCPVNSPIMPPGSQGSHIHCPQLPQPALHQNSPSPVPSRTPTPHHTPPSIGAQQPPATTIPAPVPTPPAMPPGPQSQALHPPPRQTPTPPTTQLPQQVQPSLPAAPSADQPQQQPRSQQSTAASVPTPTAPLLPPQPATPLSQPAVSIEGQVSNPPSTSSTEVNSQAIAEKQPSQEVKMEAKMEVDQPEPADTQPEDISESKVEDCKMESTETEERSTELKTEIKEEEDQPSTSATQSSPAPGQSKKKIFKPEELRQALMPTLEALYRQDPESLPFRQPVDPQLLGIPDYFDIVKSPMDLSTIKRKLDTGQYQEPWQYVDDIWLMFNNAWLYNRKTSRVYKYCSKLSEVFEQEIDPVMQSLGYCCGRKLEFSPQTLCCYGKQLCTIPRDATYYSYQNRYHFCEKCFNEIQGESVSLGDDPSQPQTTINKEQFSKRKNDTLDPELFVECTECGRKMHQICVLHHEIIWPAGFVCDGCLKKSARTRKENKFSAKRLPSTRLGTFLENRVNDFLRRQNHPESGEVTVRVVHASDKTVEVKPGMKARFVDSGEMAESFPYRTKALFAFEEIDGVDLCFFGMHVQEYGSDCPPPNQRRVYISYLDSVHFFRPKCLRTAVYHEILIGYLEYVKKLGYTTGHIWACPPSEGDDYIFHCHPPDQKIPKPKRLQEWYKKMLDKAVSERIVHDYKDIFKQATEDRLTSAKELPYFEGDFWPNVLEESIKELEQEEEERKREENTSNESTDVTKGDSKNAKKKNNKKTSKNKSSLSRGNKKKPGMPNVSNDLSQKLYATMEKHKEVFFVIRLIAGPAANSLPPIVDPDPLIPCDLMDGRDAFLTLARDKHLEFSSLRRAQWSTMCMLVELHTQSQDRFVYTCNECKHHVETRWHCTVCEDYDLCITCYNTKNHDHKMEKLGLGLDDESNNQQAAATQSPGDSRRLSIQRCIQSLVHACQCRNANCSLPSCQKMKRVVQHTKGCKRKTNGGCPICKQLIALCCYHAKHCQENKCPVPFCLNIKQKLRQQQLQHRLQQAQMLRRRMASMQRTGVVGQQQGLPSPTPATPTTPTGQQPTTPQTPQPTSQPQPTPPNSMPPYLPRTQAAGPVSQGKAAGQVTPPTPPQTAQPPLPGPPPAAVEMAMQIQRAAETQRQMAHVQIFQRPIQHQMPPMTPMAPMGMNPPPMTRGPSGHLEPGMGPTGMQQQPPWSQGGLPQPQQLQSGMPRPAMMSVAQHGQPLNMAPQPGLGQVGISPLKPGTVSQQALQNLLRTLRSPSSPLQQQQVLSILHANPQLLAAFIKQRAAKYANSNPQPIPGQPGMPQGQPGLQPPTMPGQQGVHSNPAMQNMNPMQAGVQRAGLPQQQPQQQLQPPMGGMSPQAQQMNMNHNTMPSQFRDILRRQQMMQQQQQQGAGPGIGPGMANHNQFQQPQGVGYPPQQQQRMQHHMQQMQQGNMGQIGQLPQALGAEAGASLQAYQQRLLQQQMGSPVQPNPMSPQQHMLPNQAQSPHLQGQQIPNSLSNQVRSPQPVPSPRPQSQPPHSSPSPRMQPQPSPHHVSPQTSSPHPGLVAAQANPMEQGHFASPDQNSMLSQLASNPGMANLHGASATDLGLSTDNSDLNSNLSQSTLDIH
UniProt Q9UF56: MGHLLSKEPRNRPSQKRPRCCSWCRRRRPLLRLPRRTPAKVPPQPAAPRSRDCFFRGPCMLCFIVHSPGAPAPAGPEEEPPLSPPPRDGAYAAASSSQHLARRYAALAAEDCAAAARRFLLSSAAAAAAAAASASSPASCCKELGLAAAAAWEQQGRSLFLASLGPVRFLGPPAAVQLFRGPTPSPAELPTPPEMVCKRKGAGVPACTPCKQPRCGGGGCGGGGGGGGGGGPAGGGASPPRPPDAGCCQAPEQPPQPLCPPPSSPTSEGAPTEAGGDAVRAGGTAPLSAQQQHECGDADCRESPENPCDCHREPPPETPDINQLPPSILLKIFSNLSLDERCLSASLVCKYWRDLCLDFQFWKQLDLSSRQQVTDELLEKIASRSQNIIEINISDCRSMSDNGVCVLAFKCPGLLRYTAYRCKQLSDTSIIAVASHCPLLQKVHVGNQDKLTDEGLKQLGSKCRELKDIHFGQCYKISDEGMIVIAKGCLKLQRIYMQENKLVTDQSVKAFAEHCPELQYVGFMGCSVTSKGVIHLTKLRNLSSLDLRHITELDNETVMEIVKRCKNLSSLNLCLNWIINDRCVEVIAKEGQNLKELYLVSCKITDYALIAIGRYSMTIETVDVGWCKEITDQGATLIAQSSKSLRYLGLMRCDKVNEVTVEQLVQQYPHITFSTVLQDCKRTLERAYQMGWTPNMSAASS
UniProt Q99873: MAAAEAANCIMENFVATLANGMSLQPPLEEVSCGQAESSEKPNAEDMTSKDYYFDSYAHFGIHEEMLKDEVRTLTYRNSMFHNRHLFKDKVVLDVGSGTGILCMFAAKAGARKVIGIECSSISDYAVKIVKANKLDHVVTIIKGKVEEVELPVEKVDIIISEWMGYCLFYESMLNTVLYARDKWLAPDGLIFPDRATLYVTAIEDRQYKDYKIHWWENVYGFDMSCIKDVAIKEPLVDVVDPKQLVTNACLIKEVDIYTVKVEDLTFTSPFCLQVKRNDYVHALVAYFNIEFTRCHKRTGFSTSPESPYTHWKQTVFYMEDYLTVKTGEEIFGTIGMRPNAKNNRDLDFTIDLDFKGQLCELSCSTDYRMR

Assays:
Assay in all cases: co-IP
[1] = target: PRMT1^228TAG (PRMT1 with acetyl-lysine incorporated at K228 by genetic code expansion) (human)
Myc-tagged p300 = Myc-tagged p300 (UniProt Q09472)
[2] = target: Human PRMT1 with a C-terminal FLAG epitope tag (FLAG-tagged PRMT1) (human)

## FBXL17 (as in the co-immunoprecipitation with the genetic code expansion variants, Fig. 5G) (from UniProt Q9UF56 1-701)
[1]
  binding: binds

## endogenous PRMT1 (from UniProt Q99873 1-371) (enzyme)
Myc-tagged p300
  binding: binds

## endogenous p300 (from UniProt Q09472 1-2414) (enzyme)
[2]
  binding: binds
